{
  "sequences": {"note": "Sequences of proteins named here, by UniProt entry; tags and fusion partners are left off. A change or cut given only in a name is not applied to a line headed by its entry.", "UniProt Q8K0L2": "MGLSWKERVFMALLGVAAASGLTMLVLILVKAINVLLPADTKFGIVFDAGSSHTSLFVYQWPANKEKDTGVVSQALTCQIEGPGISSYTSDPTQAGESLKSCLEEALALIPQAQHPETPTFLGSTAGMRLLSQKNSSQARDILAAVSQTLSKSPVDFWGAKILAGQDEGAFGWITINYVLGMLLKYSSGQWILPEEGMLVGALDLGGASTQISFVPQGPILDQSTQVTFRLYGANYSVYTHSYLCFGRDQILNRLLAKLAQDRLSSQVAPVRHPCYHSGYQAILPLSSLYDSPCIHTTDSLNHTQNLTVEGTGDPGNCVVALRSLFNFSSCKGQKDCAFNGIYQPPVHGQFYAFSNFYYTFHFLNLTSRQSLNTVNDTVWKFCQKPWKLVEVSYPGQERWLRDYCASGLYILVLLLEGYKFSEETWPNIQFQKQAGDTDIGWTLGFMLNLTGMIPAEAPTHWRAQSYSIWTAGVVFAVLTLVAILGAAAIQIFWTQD", "UniProt Q8CH02": "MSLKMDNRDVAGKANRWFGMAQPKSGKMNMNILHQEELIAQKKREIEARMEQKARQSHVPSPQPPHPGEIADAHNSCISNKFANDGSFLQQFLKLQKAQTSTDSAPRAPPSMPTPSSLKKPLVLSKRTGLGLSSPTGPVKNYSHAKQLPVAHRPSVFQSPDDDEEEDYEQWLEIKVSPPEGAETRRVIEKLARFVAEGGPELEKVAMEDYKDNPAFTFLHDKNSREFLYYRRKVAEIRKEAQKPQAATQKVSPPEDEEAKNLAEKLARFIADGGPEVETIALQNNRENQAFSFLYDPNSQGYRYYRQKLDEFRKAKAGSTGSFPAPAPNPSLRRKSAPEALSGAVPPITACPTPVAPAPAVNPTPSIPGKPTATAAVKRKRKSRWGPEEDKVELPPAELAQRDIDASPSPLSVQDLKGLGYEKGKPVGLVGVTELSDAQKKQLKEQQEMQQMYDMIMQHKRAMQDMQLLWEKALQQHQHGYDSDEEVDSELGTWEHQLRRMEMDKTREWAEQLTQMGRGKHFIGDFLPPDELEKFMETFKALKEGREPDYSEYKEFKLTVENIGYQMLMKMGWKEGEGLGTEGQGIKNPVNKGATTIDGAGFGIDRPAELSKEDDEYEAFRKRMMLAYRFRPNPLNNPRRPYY", "UniProt Q8VC31": "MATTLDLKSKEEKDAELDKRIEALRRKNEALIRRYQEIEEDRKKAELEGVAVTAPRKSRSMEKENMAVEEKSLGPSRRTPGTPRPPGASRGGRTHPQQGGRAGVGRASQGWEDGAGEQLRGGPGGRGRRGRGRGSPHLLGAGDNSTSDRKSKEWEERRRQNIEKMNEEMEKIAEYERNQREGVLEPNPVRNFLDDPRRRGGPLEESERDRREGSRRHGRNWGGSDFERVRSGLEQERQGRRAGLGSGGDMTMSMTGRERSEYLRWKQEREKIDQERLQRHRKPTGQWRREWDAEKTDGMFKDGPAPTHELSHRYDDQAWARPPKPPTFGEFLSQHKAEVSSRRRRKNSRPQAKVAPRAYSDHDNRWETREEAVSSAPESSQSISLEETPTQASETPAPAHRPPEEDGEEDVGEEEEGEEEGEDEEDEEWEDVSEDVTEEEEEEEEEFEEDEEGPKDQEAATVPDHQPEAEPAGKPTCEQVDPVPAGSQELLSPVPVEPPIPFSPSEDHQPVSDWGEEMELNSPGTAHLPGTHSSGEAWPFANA", "UniProt Q8VC97": "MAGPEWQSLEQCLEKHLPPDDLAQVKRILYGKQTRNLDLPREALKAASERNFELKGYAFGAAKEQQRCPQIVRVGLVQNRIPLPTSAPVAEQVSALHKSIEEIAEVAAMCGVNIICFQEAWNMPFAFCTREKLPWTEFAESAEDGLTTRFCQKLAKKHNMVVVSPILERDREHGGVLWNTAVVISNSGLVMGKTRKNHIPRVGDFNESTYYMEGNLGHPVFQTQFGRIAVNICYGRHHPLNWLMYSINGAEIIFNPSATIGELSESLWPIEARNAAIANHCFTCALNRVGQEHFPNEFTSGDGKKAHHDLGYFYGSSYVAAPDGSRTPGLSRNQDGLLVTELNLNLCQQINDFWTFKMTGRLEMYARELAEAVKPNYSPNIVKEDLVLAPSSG", "UniProt Q8CIM7": "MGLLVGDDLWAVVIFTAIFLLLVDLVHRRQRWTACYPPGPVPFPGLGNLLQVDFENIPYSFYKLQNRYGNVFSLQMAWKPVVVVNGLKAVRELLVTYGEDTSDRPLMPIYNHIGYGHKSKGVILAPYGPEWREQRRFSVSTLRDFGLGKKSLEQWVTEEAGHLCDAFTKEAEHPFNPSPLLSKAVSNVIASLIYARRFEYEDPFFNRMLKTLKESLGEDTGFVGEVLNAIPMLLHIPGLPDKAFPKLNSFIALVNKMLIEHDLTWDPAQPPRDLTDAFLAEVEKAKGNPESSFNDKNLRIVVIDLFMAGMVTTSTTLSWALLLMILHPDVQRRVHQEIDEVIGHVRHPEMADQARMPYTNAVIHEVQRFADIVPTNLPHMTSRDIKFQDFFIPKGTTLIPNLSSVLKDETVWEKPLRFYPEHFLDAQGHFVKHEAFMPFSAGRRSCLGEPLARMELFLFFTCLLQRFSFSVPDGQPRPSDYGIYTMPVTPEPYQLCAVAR", "UniProt Q8R5F7": "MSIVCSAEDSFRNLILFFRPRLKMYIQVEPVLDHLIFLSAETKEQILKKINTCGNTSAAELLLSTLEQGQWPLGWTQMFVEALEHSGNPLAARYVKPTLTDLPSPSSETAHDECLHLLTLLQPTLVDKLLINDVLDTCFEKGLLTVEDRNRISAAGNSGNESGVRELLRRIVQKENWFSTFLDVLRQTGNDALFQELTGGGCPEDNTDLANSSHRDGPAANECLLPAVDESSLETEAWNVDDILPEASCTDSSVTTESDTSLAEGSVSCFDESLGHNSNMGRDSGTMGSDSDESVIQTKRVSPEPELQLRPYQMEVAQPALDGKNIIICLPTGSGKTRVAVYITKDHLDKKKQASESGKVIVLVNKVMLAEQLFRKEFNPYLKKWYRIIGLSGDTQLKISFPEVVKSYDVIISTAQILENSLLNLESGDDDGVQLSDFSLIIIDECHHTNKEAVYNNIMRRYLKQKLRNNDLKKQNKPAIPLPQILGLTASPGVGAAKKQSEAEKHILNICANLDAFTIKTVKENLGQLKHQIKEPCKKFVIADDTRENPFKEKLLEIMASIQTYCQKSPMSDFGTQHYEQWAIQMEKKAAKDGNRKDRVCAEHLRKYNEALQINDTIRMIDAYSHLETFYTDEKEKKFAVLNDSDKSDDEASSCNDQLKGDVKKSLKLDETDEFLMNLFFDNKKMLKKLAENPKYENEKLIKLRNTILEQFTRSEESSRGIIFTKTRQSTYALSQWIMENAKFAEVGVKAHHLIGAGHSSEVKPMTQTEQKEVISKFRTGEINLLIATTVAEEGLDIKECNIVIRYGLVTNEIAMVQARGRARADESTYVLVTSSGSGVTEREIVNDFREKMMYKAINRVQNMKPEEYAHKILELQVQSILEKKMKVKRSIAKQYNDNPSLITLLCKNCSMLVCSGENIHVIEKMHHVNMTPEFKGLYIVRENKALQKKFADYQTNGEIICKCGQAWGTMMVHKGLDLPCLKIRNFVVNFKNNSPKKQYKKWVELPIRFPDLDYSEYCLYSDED", "UniProt Q8K440": "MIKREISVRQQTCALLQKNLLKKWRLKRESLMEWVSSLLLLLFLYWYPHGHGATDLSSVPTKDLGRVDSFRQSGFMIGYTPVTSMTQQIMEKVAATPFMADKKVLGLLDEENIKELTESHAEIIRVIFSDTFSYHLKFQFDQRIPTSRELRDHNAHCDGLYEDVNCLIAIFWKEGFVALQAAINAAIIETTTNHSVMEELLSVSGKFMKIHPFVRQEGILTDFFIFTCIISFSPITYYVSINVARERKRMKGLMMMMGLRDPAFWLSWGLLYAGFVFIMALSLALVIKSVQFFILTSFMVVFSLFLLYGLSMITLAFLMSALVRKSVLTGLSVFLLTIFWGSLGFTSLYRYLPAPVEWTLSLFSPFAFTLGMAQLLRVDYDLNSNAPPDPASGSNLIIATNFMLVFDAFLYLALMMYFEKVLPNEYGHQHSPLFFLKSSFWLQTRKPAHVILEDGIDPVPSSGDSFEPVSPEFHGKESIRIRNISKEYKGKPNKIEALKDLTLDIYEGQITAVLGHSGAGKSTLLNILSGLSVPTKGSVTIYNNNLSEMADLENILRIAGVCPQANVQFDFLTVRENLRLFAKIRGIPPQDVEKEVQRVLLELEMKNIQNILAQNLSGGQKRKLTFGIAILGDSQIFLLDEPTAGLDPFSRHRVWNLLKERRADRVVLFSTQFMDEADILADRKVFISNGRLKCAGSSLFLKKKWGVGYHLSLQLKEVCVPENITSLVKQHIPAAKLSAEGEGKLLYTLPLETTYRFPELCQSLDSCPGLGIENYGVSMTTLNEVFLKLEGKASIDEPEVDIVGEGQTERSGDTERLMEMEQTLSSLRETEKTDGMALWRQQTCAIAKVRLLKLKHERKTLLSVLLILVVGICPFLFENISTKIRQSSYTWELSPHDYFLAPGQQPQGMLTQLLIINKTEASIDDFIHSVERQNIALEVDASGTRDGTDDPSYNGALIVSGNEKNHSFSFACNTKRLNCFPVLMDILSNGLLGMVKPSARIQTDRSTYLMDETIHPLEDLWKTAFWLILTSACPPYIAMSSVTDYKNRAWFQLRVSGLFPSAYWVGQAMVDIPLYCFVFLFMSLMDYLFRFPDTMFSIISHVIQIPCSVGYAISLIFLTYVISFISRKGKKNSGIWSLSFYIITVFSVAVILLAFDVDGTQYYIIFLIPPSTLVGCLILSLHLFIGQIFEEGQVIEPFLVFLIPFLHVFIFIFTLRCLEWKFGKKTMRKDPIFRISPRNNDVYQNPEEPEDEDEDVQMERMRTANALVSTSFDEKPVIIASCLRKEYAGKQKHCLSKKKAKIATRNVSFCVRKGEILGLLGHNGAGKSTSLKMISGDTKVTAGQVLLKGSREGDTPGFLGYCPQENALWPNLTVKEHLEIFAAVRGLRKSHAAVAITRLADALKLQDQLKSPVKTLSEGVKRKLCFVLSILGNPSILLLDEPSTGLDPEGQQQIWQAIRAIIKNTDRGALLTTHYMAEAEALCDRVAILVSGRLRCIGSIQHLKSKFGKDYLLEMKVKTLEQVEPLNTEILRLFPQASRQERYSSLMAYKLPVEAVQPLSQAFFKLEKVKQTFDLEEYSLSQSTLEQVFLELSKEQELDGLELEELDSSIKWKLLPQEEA", "UniProt Q8VBV3, whole entry": "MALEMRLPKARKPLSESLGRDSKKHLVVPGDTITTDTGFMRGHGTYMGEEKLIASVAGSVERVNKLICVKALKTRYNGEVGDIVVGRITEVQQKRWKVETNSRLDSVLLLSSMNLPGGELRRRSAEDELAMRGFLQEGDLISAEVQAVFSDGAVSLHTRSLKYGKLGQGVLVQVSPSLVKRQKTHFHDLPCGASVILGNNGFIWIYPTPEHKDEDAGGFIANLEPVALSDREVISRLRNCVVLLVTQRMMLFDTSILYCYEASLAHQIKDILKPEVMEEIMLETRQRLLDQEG", "UniProt Q8CI61": "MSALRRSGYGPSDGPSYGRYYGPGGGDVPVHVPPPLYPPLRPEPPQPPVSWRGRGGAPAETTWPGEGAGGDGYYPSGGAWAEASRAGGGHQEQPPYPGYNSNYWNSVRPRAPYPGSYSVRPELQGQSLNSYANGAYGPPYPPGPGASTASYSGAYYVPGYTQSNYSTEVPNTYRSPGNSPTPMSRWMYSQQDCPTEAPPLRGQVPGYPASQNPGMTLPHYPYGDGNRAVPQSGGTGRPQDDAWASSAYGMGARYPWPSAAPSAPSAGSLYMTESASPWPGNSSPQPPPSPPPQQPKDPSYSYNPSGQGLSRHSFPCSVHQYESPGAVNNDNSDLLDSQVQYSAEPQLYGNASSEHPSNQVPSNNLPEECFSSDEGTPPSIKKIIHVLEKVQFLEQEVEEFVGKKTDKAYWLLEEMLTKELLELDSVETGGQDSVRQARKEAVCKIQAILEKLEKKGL", "UniProt Q8R164": "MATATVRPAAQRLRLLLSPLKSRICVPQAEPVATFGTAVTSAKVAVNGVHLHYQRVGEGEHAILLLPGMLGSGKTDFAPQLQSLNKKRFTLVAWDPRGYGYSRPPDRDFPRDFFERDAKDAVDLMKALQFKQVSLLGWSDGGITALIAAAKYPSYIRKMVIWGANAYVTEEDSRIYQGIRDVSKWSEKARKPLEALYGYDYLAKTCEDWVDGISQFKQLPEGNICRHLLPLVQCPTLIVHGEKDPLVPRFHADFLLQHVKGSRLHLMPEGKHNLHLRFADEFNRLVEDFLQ", "UniProt Q8JZZ6": "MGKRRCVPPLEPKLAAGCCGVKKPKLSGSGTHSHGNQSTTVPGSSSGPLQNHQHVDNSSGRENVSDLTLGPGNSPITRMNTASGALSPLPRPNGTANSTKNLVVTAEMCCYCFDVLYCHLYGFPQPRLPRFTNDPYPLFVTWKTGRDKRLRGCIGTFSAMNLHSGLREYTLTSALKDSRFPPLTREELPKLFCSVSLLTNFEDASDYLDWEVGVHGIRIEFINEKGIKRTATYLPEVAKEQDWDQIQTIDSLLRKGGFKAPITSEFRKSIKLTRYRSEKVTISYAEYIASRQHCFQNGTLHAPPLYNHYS"},
  "source": "the supplement of paper PMC12819154",
  "about": "“High-throughput peptide-centric local stability assay extends protein–ligand identification to membrane proteins, tissues and bacteria” (Nature Structural & Molecular Biology, 2025)",
  "note": "The other results are listed elsewhere or left out. Most values lie at the level of the controls, where differences are scatter.",
  "data": [
    {"compound": "CN[C@@H]1C[C@H]2O[C@@](C)([C@@H]1OC)n1c3ccccc3c3c4c(c5c6ccccc6n2c5c31)C(=O)NC4 [staurosporine]", "assay": "log2 fold change of pooled soluble protein (PISA), ligand vs vehicle (log2 ratio); higher = more thermally stabilized", "conditions": "ligand concentration: 20 uM; assay format: PISA pool 52.9/55.5/58.6 C", "values": [
      {"target": "UniProt Q8K0L2", "log2 fold change of pooled soluble protein": -0.00267},
      {"target": "UniProt Q8CH02", "log2 fold change of pooled soluble protein": 0.103},
      {"target": "UniProt Q8K3K7", "log2 fold change of pooled soluble protein": 0.07},
      {"target": "UniProt Q8R4Y4", "log2 fold change of pooled soluble protein": -0.0313},
      {"target": "UniProt Q8VC31", "log2 fold change of pooled soluble protein": 0.0562},
      {"target": "UniProt Q8VCC2", "log2 fold change of pooled soluble protein": -0.0371},
      {"target": "UniProt Q8VBT9", "log2 fold change of pooled soluble protein": 0.107},
      {"target": "UniProt Q8VCG4", "log2 fold change of pooled soluble protein": 0.163},
      {"target": "UniProt Q8QZT1", "log2 fold change of pooled soluble protein": -0.0697},
      {"target": "UniProt Q8R0F8", "log2 fold change of pooled soluble protein": -0.00297},
      {"target": "UniProt Q8R574", "log2 fold change of pooled soluble protein": -0.111},
      {"target": "UniProt Q8VC97", "log2 fold change of pooled soluble protein": 0.193},
      {"target": "UniProt Q8VCB3", "log2 fold change of pooled soluble protein": 0.00688},
      {"target": "UniProt Q8K135", "log2 fold change of pooled soluble protein": -0.165},
      {"target": "UniProt Q8VCH7", "log2 fold change of pooled soluble protein": 0.0877},
      {"target": "UniProt Q8CIM7", "log2 fold change of pooled soluble protein": 0.234},
      {"target": "UniProt Q8VC19", "log2 fold change of pooled soluble protein": 0.215},
      {"target": "UniProt Q8R5F7", "log2 fold change of pooled soluble protein": -0.124},
      {"target": "UniProt Q8CHP8", "log2 fold change of pooled soluble protein": -0.059},
      {"target": "UniProt Q8K440", "log2 fold change of pooled soluble protein": 0.0416},
      {"target": "UniProt Q8CIB5", "log2 fold change of pooled soluble protein": -0.06},
      {"target": "UniProt Q8K157", "log2 fold change of pooled soluble protein": -0.451},
      {"target": "UniProt Q8K215", "log2 fold change of pooled soluble protein": -0.173},
      {"target": "UniProt Q8R4U0", "log2 fold change of pooled soluble protein": 0.0176},
      {"target": "UniProt Q8VBV3", "log2 fold change of pooled soluble protein": -0.207},
      {"target": "UniProt Q8CI61", "log2 fold change of pooled soluble protein": 0.155},
      {"target": "UniProt Q8K297", "log2 fold change of pooled soluble protein": 0.147},
      {"target": "UniProt Q8VCM7", "log2 fold change of pooled soluble protein": -0.125},
      {"target": "UniProt Q8R164", "log2 fold change of pooled soluble protein": 0.063},
      {"target": "UniProt Q8JZZ6", "log2 fold change of pooled soluble protein": -0.0287},
      {"target": "UniProt Q8K1N1", "log2 fold change of pooled soluble protein": -0.0327},
      {"target": "UniProt Q8VCL5", "log2 fold change of pooled soluble protein": 0.0193},
      {"target": "UniProt Q8R1S9", "log2 fold change of pooled soluble protein": 0.0233},
      {"target": "UniProt Q8K3H0", "log2 fold change of pooled soluble protein": -0.0531},
      {"target": "UniProt Q8K2H2", "log2 fold change of pooled soluble protein": -0.218},
      {"target": "UniProt Q8CIF6", "log2 fold change of pooled soluble protein": -0.115},
      {"target": "UniProt Q8K273", "log2 fold change of pooled soluble protein": -0.112}
    ]}
  ]
}
